These results are taken from the supplement of paper PMC7666118.

The chains behind the UniProt entries cited, without tags or fusion partners. Where a name states a change or a piece, a line headed by the entry shows the natural chain unless it says otherwise.
UniProt P10412, whole entry: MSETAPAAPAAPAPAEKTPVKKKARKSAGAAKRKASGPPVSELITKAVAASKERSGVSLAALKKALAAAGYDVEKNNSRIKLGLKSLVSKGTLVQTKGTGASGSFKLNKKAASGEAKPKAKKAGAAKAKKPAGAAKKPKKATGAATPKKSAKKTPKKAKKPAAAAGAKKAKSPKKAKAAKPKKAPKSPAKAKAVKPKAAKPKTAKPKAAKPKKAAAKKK
UniProt O00178: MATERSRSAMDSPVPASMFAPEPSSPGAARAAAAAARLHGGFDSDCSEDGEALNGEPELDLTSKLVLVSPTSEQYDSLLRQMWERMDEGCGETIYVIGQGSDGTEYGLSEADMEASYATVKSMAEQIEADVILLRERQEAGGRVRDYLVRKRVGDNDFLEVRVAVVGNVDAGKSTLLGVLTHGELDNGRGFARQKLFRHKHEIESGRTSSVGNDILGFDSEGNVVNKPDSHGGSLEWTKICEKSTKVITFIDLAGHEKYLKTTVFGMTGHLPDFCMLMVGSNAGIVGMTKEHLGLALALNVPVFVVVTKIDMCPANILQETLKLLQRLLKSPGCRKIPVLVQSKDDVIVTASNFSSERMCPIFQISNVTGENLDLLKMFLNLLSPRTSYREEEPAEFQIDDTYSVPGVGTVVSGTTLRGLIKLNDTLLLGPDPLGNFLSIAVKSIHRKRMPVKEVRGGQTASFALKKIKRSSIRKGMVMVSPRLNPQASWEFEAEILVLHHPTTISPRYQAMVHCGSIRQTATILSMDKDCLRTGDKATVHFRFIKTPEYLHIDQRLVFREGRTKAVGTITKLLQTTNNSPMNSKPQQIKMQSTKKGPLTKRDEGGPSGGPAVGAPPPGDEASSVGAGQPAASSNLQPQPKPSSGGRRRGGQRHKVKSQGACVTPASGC
UniProt P49773: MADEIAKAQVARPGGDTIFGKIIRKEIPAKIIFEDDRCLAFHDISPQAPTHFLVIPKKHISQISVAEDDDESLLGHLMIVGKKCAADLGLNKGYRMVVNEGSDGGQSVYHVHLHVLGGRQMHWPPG
UniProt P0C0S5, whole entry: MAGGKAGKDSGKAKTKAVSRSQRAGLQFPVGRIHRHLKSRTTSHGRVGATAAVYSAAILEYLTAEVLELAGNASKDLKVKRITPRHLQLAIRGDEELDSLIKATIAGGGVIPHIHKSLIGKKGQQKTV
UniProt G9CGD6: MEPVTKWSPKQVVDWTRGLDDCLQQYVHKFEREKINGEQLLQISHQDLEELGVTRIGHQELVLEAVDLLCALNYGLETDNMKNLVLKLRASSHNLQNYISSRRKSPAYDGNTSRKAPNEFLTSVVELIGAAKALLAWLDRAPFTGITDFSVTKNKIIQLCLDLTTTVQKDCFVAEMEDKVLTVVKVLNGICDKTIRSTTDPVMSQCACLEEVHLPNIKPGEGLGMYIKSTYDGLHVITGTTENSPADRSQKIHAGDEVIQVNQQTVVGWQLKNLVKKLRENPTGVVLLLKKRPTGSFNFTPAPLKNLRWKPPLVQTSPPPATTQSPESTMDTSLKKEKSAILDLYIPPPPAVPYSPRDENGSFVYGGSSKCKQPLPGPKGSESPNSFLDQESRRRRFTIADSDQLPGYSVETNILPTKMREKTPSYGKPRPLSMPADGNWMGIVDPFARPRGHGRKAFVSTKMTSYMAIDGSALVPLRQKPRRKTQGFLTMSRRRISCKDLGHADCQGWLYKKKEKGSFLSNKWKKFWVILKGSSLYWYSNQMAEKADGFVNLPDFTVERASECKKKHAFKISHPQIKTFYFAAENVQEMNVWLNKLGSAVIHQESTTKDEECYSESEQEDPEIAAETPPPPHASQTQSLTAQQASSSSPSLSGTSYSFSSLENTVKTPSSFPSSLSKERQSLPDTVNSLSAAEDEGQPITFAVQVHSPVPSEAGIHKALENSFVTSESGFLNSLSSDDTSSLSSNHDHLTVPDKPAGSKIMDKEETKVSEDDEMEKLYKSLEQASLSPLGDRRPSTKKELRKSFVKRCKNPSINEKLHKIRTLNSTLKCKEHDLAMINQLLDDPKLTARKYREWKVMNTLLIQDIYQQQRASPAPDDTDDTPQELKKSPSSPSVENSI
UniProt Q9Y5Q8: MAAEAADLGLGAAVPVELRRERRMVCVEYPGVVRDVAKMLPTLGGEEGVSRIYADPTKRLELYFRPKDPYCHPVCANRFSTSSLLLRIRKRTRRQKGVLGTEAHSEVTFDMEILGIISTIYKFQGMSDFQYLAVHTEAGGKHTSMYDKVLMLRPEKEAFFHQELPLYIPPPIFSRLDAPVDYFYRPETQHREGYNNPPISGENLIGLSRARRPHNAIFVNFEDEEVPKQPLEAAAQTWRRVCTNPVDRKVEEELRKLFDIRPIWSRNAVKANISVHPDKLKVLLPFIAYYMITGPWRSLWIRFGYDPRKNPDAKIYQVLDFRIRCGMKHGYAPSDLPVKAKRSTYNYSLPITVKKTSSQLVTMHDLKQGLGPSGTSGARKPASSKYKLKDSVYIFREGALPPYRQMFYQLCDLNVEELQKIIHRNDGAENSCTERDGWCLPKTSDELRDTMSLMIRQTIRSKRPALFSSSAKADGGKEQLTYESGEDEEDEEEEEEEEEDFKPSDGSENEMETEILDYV
UniProt P06280: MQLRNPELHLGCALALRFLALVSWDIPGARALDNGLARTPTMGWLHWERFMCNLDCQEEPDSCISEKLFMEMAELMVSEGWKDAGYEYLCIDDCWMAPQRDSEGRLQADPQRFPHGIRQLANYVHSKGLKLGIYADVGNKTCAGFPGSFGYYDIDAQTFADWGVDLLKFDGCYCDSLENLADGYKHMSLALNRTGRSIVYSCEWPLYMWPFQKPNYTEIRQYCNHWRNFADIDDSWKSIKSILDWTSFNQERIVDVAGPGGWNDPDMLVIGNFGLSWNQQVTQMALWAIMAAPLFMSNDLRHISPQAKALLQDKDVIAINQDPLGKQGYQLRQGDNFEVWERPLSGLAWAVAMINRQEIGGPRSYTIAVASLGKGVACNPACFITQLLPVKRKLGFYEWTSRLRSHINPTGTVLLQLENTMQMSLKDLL
UniProt Q8WVV9: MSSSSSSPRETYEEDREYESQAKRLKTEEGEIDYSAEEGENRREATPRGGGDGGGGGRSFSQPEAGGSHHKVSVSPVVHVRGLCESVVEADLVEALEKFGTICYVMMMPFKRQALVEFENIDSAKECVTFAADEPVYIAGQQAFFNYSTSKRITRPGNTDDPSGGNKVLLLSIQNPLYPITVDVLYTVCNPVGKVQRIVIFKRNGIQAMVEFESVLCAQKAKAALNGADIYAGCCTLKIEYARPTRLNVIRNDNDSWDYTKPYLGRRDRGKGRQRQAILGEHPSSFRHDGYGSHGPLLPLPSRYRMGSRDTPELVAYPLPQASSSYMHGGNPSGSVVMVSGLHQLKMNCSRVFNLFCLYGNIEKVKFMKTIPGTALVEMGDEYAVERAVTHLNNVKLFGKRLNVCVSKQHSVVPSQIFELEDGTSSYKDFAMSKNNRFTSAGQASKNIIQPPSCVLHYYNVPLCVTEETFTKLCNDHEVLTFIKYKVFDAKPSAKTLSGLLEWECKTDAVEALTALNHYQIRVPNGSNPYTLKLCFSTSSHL
UniProt Q9Y223: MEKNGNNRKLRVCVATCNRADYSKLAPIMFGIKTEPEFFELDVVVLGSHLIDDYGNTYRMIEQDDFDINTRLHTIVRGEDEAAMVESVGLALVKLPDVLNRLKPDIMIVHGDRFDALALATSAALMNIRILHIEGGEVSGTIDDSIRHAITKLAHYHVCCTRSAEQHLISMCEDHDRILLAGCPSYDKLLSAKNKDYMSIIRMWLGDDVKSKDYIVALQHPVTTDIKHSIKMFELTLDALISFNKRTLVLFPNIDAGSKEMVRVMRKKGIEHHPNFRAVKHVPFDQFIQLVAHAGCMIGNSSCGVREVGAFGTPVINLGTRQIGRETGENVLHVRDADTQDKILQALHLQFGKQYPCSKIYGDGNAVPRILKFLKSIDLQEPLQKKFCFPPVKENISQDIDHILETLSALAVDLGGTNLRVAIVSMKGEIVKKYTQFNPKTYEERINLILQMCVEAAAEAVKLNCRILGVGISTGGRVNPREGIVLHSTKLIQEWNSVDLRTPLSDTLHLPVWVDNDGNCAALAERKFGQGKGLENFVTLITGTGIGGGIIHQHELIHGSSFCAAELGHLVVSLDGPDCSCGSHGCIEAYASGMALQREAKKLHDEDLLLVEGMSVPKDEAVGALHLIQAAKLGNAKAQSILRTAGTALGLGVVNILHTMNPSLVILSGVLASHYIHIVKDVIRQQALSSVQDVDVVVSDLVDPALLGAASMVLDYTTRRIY
UniProt Q3T8J9: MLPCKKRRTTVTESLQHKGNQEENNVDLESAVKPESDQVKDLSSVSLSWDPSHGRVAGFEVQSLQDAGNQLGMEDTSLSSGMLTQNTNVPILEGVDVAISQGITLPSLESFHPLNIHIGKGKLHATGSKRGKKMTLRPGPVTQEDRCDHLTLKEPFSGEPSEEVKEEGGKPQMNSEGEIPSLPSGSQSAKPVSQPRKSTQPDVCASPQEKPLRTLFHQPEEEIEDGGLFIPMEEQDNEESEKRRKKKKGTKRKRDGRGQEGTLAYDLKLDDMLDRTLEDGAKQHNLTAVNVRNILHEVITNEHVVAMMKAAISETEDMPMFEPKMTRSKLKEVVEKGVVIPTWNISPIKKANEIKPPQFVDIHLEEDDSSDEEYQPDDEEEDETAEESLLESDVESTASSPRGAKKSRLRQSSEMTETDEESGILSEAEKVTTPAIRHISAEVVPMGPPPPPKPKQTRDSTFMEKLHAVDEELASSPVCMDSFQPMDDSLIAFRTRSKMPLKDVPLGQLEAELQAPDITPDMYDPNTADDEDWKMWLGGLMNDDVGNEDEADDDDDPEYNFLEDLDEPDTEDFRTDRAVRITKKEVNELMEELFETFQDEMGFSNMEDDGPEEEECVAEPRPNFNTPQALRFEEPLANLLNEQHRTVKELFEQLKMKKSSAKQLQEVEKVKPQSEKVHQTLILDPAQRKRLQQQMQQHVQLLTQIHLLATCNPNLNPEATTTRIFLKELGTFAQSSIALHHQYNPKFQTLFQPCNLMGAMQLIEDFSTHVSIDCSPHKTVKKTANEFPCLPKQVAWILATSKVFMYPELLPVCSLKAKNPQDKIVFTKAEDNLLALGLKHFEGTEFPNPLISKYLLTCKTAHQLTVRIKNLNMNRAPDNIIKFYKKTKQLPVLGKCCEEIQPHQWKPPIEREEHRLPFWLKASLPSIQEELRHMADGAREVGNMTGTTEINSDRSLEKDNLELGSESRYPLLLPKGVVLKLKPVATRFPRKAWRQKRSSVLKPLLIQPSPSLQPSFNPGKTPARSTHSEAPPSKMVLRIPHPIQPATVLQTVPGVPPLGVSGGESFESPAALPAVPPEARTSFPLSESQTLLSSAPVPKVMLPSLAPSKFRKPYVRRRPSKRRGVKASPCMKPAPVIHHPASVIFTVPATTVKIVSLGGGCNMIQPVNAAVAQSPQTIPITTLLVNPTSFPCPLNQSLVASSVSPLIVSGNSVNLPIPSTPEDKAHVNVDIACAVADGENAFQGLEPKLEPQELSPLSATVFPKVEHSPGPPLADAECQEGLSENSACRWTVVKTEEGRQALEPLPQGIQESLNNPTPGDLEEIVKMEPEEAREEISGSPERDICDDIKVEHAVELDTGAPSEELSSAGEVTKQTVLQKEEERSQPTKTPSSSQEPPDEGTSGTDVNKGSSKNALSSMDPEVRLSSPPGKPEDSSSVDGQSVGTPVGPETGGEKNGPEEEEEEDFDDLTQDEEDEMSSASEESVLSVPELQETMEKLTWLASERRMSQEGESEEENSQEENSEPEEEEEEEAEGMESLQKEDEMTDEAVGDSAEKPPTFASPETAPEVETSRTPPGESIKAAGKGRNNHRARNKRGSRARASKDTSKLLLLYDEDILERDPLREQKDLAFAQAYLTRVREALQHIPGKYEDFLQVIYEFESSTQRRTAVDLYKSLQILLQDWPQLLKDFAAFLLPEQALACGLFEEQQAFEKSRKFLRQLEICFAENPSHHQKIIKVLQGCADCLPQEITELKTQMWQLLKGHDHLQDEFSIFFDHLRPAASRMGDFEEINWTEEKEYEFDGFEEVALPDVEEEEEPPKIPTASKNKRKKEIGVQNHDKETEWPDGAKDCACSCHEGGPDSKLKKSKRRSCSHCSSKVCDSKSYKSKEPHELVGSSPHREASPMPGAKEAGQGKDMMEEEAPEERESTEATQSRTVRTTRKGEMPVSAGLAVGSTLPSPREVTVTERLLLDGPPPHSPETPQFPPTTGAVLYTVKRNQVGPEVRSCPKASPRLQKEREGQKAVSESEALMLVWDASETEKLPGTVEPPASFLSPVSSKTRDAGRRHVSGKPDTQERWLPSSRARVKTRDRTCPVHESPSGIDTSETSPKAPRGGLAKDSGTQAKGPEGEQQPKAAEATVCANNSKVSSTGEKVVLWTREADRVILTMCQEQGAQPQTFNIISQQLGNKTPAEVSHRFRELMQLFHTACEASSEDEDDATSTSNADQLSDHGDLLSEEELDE

The list shows a part of the results.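 The calls were made as follows: active = dose-dependent thermal stabilisation significant by F-test of dose-response against flat model at 10% FDR; inactive = not significant.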

Compound in the experiment: Nc1nc2c(ncn2[C@@H]2O[C@H](COP(=O)(O)OP(=O)(O)OP(=O)(O)O)[C@@H](O)[C@H]2O)c(=O)[nH]1
Put plainly: dose-dependent thermal stabilisation call (2D-TPP, DLPTP, 10% FDR) (binary (1 = stabilised)); higher = stabilised by the compound. As to conditions: system: Jurkat gel-filtered lysate; concentration range 1-500 µM.
For HIST1H1E (UniProt P10412), the “dose-dependent thermal stabilisation call” value was inactive: 0.

Take GTPBP1 (UniProt O00178): the “dose-dependent thermal stabilisation call” value was active: 1. Then HMGB1 (UniProt P09429), with inactive: 0. The same measure for GSTM1 (UniProt P09488): inactive: 0; for HIF1AN (UniProt Q9NWT6): inactive: 0. The same measure for GFOD2 (UniProt Q3B7J2): inactive: 0; for HINT1 (UniProt P49773): inactive: 0. With H2AFZ (UniProt P0C0S5), the “dose-dependent thermal stabilisation call” value was inactive: 0. With GCFC2 (UniProt P16383), the “dose-dependent thermal stabilisation call” value is inactive: 0. The same measure for UniProt G9CGD6: inactive: 0. The same measure for GTF2H3 (UniProt Q13889): inactive: 0; for GINS4 (UniProt Q9BRT9): inactive: 0; for HABP4 (UniProt Q5JVS0): inactive: 0.

Consider GTF2I (UniProt P78347), for which the “dose-dependent thermal stabilisation call” value was active: 1. The same measure for HDGF (UniProt P51858): inactive: 0; for GTF3C5 (UniProt Q9Y5Q8): inactive: 0. GLA (UniProt P06280): the “dose-dependent thermal stabilisation call” value is active: 1. Then HDAC6 (UniProt Q9UBN7), with inactive: 0; and GEMIN6 (UniProt Q8WXD5), with inactive: 0. The same measure for GET4 (UniProt Q7L5D6): inactive: 0; for HEATR5B (UniProt Q9P2D3): inactive: 0. The same measure for GID8 (UniProt Q9NWU2): inactive: 0; for GSTP1 (UniProt P09211): inactive: 0.

In the case of HADH (UniProt Q16836), the “dose-dependent thermal stabilisation call” value is inactive: 0. Then HEXB (UniProt P07686), with inactive: 0; and GAPDH (UniProt P04406), with inactive: 0. Then GIMAP7 (UniProt Q8NHV1), with inactive: 0; and HMGN2 (UniProt P05204), with inactive: 0; and GOLPH3L (UniProt Q9H4A5), with inactive: 0.

Turning to GALK2 (UniProt Q01415), the “dose-dependent thermal stabilisation call” value is inactive: 0.

Regarding GTF2E1 (UniProt P29083), the “dose-dependent thermal stabilisation call” value is inactive: 0. Turning to HNRNPLL (UniProt Q8WVV9), the “dose-dependent thermal stabilisation call” value is active: 1. For the target HLCS (UniProt P50747), the “dose-dependent thermal stabilisation call” value is inactive: 0. Then GNE (UniProt Q9Y223), with active: 1; and GON4L (UniProt Q3T8J9), with inactive: 0. Then GOT2 (UniProt P00505), with inactive: 0.
